Measured values reported in paper PMC4161973.
No constants are given. Whether binding was seen depends on the method and setting. Binding seen in cells or lysates may run through a third protein. Some binding calls cover weakened binding; strength is not graded here. For part of these data: Where a sequence is shown, tags or fusion partners need not be part of it. Blank lines part the entries; values can stand above or below the molecule they belong to.

How the values were obtained:
[1] = molecular target: T1, GST-Kap123 (S. cerevisiae) (UniProt P40069); assay: pull-down; dissociation assay, 1 hr: GST-importin:r-protein^FLAG complexes pre-formed on Glutathione Sepharose (r-protein from E. coli lysate) incubated with buffer alone, 1.5 µM RanGTP, 1.5 µM Tsr2 or His6-Tsr2, or 3 nM 3'-end of 18S rRNA for 1 hr at 4°C; only the target purified
T1 sequence: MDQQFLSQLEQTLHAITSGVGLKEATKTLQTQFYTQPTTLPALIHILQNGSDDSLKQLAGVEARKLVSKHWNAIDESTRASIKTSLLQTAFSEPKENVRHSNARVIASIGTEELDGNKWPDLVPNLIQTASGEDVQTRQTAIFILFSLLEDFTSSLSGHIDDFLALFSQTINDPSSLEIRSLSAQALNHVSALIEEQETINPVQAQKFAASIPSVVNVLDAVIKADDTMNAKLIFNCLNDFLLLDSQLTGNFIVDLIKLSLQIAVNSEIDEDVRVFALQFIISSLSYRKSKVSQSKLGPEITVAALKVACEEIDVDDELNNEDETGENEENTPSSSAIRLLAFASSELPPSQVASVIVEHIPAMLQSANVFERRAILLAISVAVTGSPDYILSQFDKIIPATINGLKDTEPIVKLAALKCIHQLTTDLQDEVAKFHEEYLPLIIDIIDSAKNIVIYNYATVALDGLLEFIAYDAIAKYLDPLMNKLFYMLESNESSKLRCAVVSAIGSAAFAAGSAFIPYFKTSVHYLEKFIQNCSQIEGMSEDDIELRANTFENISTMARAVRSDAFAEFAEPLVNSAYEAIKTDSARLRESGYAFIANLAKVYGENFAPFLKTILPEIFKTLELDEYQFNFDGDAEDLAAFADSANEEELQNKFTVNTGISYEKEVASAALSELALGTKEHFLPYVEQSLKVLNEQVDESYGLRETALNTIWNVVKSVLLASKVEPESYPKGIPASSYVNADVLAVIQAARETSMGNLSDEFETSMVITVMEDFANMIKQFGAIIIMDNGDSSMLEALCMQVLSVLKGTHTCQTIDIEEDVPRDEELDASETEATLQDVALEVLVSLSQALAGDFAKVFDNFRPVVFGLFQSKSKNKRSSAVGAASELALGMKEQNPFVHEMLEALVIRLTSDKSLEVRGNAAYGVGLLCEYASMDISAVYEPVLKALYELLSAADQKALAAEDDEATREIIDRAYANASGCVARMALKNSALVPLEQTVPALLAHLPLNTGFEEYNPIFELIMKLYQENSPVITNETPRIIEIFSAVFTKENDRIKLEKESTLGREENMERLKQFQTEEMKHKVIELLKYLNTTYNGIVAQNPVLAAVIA

Enp1-TAP (S. cerevisiae) = molecular target: T2, Enp1-TAP (S. cerevisiae) (UniProt P38333); assay: co-IP; tandem affinity purification of pre-ribosomal particles by TAP-tagged baits from yeast (WT and, for Enp1-TAP, Tsr2-depleted cells); Calmodulin-eluates analysed by Western
T2 sequence: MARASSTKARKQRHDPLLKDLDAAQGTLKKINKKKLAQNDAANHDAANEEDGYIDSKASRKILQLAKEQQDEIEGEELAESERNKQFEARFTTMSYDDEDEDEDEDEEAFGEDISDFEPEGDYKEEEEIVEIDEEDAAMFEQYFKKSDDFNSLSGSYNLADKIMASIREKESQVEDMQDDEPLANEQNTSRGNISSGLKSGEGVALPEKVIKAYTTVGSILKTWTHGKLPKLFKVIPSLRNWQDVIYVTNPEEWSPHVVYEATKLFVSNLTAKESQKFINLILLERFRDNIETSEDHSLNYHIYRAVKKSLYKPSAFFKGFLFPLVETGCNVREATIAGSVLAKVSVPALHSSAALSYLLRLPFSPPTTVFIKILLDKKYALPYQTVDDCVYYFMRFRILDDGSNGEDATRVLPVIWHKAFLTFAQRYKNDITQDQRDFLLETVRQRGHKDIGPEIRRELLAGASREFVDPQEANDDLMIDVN

[2] = molecular target: T3, Enp1-TAP (S. cerevisiae), P38333; assay: as above; conditions: remark: other sources report otherwise
T3 chain: T2 sequence

GST-Pse1 (S. cerevisiae) = molecular target: T4, GST-Pse1 (S. cerevisiae) (UniProt P32337); assay: pull-down; Pse1:Slx9 complexes immobilised on Glutathione Sepharose, incubated with buffer alone, 1.5 µM RanGTP, 1.5 µM Tsr2 or 3 nM 3'-end of 18S rRNA for 1 hr at 4°C
T4 sequence: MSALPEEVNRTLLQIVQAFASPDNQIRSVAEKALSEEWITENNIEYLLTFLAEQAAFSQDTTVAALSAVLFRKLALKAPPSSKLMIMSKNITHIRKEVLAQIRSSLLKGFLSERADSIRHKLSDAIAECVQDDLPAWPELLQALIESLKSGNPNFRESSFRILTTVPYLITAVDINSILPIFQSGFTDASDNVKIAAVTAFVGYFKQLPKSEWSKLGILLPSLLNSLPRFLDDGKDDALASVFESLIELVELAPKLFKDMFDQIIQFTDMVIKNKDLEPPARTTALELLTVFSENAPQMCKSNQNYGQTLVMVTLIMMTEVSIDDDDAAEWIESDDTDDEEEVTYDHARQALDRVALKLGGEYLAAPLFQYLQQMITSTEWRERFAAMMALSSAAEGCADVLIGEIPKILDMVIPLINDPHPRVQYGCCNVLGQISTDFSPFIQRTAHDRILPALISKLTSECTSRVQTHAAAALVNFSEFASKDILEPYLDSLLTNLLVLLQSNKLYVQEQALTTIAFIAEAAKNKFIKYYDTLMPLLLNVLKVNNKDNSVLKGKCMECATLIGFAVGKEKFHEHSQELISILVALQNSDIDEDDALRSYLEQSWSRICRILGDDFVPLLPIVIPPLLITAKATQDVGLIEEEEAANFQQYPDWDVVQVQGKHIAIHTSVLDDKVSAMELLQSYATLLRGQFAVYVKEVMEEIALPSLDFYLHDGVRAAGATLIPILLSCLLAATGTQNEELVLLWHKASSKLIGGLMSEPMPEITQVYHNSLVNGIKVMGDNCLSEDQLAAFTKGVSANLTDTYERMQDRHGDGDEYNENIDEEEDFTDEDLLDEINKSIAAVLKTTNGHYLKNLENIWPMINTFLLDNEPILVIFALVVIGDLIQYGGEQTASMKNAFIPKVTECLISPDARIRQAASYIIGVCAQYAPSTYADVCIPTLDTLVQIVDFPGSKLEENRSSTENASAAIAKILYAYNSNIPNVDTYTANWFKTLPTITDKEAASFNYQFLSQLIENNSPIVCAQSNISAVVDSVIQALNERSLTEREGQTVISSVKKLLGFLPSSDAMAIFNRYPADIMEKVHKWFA

binding [1]: binds
Molecule: eS31^FLAG (from UniProt P05759 77-152)

binding (Enp1-TAP (S. cerevisiae)): binds
B1: uS7 (yeast Rps5), endogenous (protein, UniProt P26783 1-225)
chain: MSDTEAPVEVQEDFEVVEEFTPVVLATPIPEEVQQAQTEIKLFNKWSFEEVEVKDASLVDYVQVRQPIFVAHTAGRYANKRFRKAQCPIIERLTNSLMMNGRNNGKKLKAVRIIKHTLDIINVLTDQNPIQVVVDAITNTGPREDTTRVGGGGAARRQAVDVSPLRRVNQAIALLTIGAREAAFRNIKTIAETLAEELINAAKGSSTSYAIKKKDELERVAKSNR

binding [2]: binds
B3: uS3 (yeast Rps3), endogenous, P05750 1-240 (protein)
chain: MVALISKKRKLVADGVFYAELNEFFTRELAEEGYSGVEVRVTPTKTEVIIRATRTQDVLGENGRRINELTLLVQKRFKYAPGTIVLYAERVQDRGLSAVAQAESMKFKLLNGLAIRRAAYGVVRYVMESGAKGCEVVVSGKLRAARAKAMKFADGFLIHSGQPVNDFIDTATRHVLMRQGVLGIKVKIMRDPAKSRTGPKALPDAVTIIEPKEEEPILAPSVKDYRPAEETEAQAEPVEA

Continued, molecule first:

B2: Nob1, endogenous (enzyme, UniProt Q08444 1-459)
chain: MTENQTAHVRALILDATPLITQSYTHYQNYAQSFYTTPTVFQEIKDAQARKNLEIWQSLGTLKLVHPSENSIAKVSTFAKLTGDYSVLSANDLHILALTYELEIKLNNGDWRLRKKPGDALDASKADVGTDGKQKLTEDNKKEEDSESVPKKKNKRRGGKKQKAKREAREAREAENANLELESKAEEHVEEAGSKEQICNDENIKESSDLNEVFEDADDDGDWITPENLTEAIIKDSGEDTTGSLGVEASEEDRHVALNRPENQVALATGDFAVQNVALQMNLNLMNFMSGLKIKRIRNYMLRCHACFKIFPLPKDGKPKHFCASCGGQGTLLRCAVSVDSRTGNVTPHLKSNFQWNNRGNRYSVASPLSKNSQKRYGKKGHVHSKPQENVILREDQKEYEKVIKQEEWTRRHNEKILNNWIGGGSADNYISPFAITGLKQHNVRIGKGRYVNSSKRRS
binding (Enp1-TAP (S. cerevisiae)): binds

B4: eS8^FLAG (protein, UniProt P0CX39 1-200)
chain: MGISRDSRHKRSATGAKRAQFRKKRKFELGRQPANTKIGAKRIHSVRTRGGNKKYRALRIETGNFSWASEGISKKTRIAGVVYHPSNNELVRTNTLTKAAIVQIDATPFRQWFEAHYGQTLGKKKNVKEEETVAKSKNAERKWAARAASAKIESSVESQFSAGRLYACISSRPGQSGRCDGYILEGEELAFYLRRLTAKK
binding [1]: binds

B5: Slx9 (protein, UniProt P53251 1-210)
chain: MVAKKRNTLRSKVSARNSQNFGPDVANNGILDESYDIESDPRAFLHQPKETKKEKLLNRQNTFLSNLKGKSTLNDGIAANFDGISKSSIRRRKRKLREELKPRMQDLLTSLEQEKDLRGIIENSSKDMNNDDDIDMDSKIRFVDTKEMNLKKIEPGSVRIKKNQPNIRNQKGAKALAANETARFNQVLTNQDFQKNPFGALREVIKLQKQ
binding (GST-Pse1 (S. cerevisiae)): binds
